These are yes or no findings as the source states them, for the method shown. Binding seen in cells or lysates may run through a third protein. Binding calls can cover weak binding; strength is not graded here.
Target: human PIAS3-AA point mutant (LXXLL motif mutated) (human) (UniProt Q9Y6X2)
Test: co-IP; HEK293T cells co-transfected with the tagged expression plasmids; whole-cell extracts in 50 mM Tris pH 7.4, 150 mM NaCl, 1% Nonidet P-40, 0.5% deoxycholate; primary antibody at 4 °C overnight, Protein G Sepharose 4-6 h; western blot with anti-tag mAbs (for bPIAS with bRel: precipitated with anti-Flag, blotted with anti-HA)

Protein sequences, listed by entry. Tags and fused reporters are not part of them. Lines headed by an entry give the natural chain unless they say otherwise; changes in a name come on top.
UniProt Q9Y6X2: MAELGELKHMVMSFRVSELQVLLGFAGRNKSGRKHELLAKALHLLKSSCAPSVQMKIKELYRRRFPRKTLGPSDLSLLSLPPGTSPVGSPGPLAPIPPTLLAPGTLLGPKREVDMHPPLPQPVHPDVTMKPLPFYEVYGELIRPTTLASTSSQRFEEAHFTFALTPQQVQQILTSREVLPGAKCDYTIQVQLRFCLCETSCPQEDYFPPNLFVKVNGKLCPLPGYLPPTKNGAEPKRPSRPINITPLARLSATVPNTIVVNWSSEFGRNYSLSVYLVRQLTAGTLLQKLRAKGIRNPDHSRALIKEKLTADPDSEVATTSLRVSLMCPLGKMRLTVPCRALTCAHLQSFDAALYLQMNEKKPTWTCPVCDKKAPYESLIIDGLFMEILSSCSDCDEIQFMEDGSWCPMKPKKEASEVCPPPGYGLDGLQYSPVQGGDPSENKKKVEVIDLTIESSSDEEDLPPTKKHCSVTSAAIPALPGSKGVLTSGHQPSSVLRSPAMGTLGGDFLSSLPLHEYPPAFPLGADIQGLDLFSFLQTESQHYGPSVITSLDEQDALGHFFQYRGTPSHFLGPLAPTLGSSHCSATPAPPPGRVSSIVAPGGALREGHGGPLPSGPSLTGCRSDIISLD
UniProt Q04206: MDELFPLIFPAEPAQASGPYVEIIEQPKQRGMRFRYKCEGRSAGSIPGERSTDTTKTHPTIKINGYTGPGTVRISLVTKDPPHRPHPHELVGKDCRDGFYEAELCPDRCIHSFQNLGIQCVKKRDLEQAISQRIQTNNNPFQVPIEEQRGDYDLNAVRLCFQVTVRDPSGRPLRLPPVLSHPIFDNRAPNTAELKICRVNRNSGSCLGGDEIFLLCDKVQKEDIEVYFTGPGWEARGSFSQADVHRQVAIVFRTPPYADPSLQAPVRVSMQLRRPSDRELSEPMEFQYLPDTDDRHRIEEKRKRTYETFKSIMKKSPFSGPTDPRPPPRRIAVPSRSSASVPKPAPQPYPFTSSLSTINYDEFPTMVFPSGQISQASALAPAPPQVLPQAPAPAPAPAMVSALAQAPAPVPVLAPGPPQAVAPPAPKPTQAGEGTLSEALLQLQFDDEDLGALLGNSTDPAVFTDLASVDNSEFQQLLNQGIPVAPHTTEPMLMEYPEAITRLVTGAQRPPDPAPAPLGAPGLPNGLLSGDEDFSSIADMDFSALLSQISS

binding: binds
Substance: human NF-κB p65, full length, Flag-tagged (from UniProt Q04206 1-551)

— paper PMC5719053
